Experimental data taken from PubChem BioAssay AID540276 (National Center for Advancing Translational Sciences (NCATS), 2011).
“And” between values parts separate entries of the source, which are not always exact repeats. Equal values may be shown once. Out of some 300,000 compounds screened, about 5,400 (1.8%) were called active. Inconclusive means that the source gave no clear call. Such entries were picked first, then a sample of the others. Calls follow the shape of the full dose curve; tested in HEK293 cells. Where the call is inconclusive, the potency comes from a doubtful curve fit.
Potency is read from the fitted curve at half-maximal effect.

Assay: qHTS for inhibitors of binding or entry into cells for Marburg Virus
Details: Marburg virus pseudotyped entry inhibition, cell reporter; series mostly up to 37.8 µM
For CCc1ccc(C(=O)/C=C/Nc2ccc(S(=O)(=O)Nc3cnc4ccccc4n3)cc2)cc1, the Potency was “inactive”.
With CCn1c(C)cc(C(=O)CN2C(=O)c3ccccc3S2(=O)=O)c1C the Potency was inconclusive: 0.891 µM [inhibitor, full curve, poor fit].
For Clc1ccc(CCNc2ncnc3nc[nH]c23)cc1, the Potency was inconclusive: 29.1 µM [inhibitor, single point].
With CCn1cnc2cc([N+](=O)[O-])ccc21 the Potency was inconclusive: 35.5 µM [activator, single point].
In the case of COC1CCC(S(=O)(=O)N2CCC3=C(CCCC3)C2)CC1 (stereo not given), the Potency is reported as inconclusive: 7.08 µM [inhibitor, partial curve, poor fit].
With C#CCOc1ccc(C2C(C(=O)OC)=C(C)NC3=C2C(=O)c2ccccc23)cc1OCC (stereo not given) the Potency was “inactive”.
For Cn1nc(C(F)(F)F)c(C(=O)Nc2cccc(C(F)(F)F)c2)c1SCc1ccc(Cl)cc1, the Potency was inconclusive: 20.6 µM [inhibitor, single point].
For COc1ccc2cc(S(=O)(=O)c3ccccc3F)c(=O)oc2c1, the Potency was “inactive”.
For O=C(NCC(c1ccc(F)cc1)N1CCOCC1)c1ccc(OCc2ccccc2)cc1 (stereo not given), the Potency was inconclusive: 35.5 µM [inhibitor, partial curve, poor fit].
In the case of Cn1c(SCc2ccc(F)cc2Cl)nc2ccccc2c1=O, the Potency is reported as inconclusive: 12.6 µM [inhibitor, partial curve, poor fit].
For O=[N+]([O-])c1ccc(N2CCN(C(=S)Nc3ccccc3)CC2)cc1, the Potency was “inactive”.
In the case of CC(C)c1nnc(NC(=O)c2sc3ccccc3c2Cl)s1, the Potency is reported as “inactive”.
With O=C(Nc1ccc(NC(=O)c2ccco2)nc1)c1cccnc1 the Potency was inconclusive: 10 µM [inhibitor, single point].
For COc1cccc(NC(=O)COc2ncnc3sc(C)c(C)c23)c1, the Potency was “inactive”.
In the case of COc1ccc(-n2cnc3sc(-c4ccccc4)cc3c2=O)cc1, the Potency is reported as inconclusive: 3.26 µM [activator, single point].
With O=C(NCCc1nc2ccccc2n1CCOc1ccc(Cl)cc1)C1CCCCC1 the Potency was inconclusive: 2.24 µM [inhibitor, full curve].
In the case of COc1ccccc1NC(=O)CN1CCN(CC(=O)Nc2ccc(OCc3ccccc3)cc2)CC1, the Potency is reported as “inactive and inconclusive: 12.6 µM [inhibitor, single point]”.
With Cc1cccn2c(=O)c(/C=C(\C#N)C(=O)NCc3ccco3)c(N3CCCC(C)C3)nc12 (stereo not given) the Potency was inconclusive: 1.26 µM [activator, full curve, poor fit].
In the case of COc1ccc(OC)c(NC(=O)c2cc(S(=O)(=O)NCc3ccco3)ccc2F)c1, the Potency is reported as inconclusive: 29.1 µM [inhibitor, single point].
With NS(=O)(=O)c1ccc(CCNc2ncnc3sccc23)cc1 the Potency was inconclusive: 0.517 µM [inhibitor, partial curve, poor fit].
In the case of O=C(Nc1ccc(-c2nc3ccc(NC(=O)c4cccs4)cc3[nH]2)cc1)c1cccs1, the Potency is reported as inconclusive: 3.55 µM [inhibitor, partial curve, poor fit].
With Cc1ccc(-c2noc(-c3cccnc3NCc3ccc(Cl)cc3)n2)cc1 the Potency was “inactive”.
In the case of Cc1cc(C)cc(-n2ncc3c2CCCC3NC(=O)C2(C(N)=O)CC2)c1 (stereo not given), the Potency is reported as inconclusive: 1.12 µM [inhibitor, partial curve].
In the case of Cc1ccnc(NC(=O)c2c(-c3ccccc3Cl)noc2C)c1, the Potency is reported as “inactive”.
With Cc1ccc(-c2noc(CN(C(=O)CCCN3C(=O)c4ccccc4C3=O)C(C)C)n2)cc1 the Potency was inconclusive: 35.5 µM [activator, single point].
For O=S(=O)(Nc1ccc(-c2ccc3nncn3n2)cc1)c1cccs1, the Potency was “inactive”.
For CCCCCCCCCCCCCCCC(=O)NCC(COP(=O)([O-])OCC[N+](C)(C)C)OCC (stereo not given), the Potency was active: 15.8 µM and active: 6.51 µM.
With CCOC(=O)N/N=C/c1cccc(Cl)c1Cl the Potency was inconclusive: 4.47 µM [activator, single point].
For CCOC(=O)c1ccc(N2C(=O)CC(Sc3nc(O)c(CC)c(=O)[nH]3)C2=O)cc1 (stereo not given), the Potency was inconclusive: 0.316 µM [activator, full curve, poor fit].
In the case of Cc1ccccc1-n1c(SCC(=O)N/N=C/c2sccc2C)nc2ccccc2c1=O, the Potency is reported as inconclusive: 0.398 µM [inhibitor, partial curve, poor fit].
With CS(=O)(=O)N1N=C(c2ccccc2)CC1c1ccc2c(c1)OCO2 (stereo not given) the Potency was inconclusive: 1.26 µM [activator, partial curve, poor fit].
In the case of CCc1cc(C(=O)N2CCCC(CNC(=O)c3ccc(-c4ccccc4)cc3)C2)no1 (stereo not given), the Potency is reported as inconclusive: 20 µM [inhibitor, partial curve, poor fit].
In the case of Cc1c(C(=O)N2CCc3ccccc32)oc2ccccc12, the Potency is reported as inconclusive: 20.6 µM [inhibitor, single point].
With COc1ccc(S(=O)(=O)N2CCOC2CNC(=O)C(=O)NCc2ccco2)cc1OC (stereo not given) the Potency was inconclusive: 11.2 µM [activator, partial curve, poor fit].
In the case of Cc1ccc(S(=O)(=O)CCc2nc3ccccc3s2)cc1C, the Potency is reported as “inactive”.
With O=C(N/N=C/c1ccncc1)c1ccc(COc2cccc3cccnc23)cc1 the Potency was inconclusive: 35.5 µM [inhibitor, single point].
In the case of COc1ccccc1NS(=O)(=O)c1cc(NC(=O)c2ccc3ccccc3n2)ccc1Cl, the Potency is reported as inconclusive: 0.731 µM [activator, single point].
With O=C1OC(c2ccccc2)(c2ccc3cc(O)ccc3c2)c2ccccc21 (stereo not given) the Potency was active: 5.62 µM.
In the case of CC(=O)/C(C#N)=C1\NC(=O)C(Cc2ccccc2Cl)S1 (stereo not given), the Potency is reported as inconclusive: 1 µM [inhibitor, full curve, poor fit].
With COc1ccc(N/C=C/C(=O)c2ccc3c(c2)OCO3)cc1OC the Potency was inconclusive: 6.31 µM [activator, single point].
For CN(c1ccccc1)c1nc(N)c([N+](=O)[O-])c(N2CCOCC2)n1, the Potency was inconclusive: 4.47 µM [activator, partial curve, poor fit].
For CCC(Oc1ccccc1)C(=O)Nc1cc(C(F)(F)F)ccc1N1CCOCC1 (stereo not given), the Potency was “inactive”.
With O=C1c2ccccc2C(=O)N1c1ccc(Cc2ccncc2)cc1 the Potency was “inactive”.
With Cc1cccc(C)c1NC(=O)C1CCCN(S(=O)(=O)c2c(C)noc2/C=C/N(C)C)C1 (stereo not given) the Potency was “inactive”.
With O=C(Nc1ccc(S(=O)(=O)N2CCCC2)cc1)C1CCN(S(=O)(=O)c2ccc(F)cc2)CC1 the Potency was inconclusive: 14.1 µM [inhibitor, single point].
In the case of Cc1ccc(Cn2nnc3c(=O)[nH]c(C4CCCN(C(=O)Nc5ccc(F)cc5)C4)nc32)cc1 (stereo not given), the Potency is reported as inconclusive: 13 µM [inhibitor, partial curve, poor fit].
For O=C(CSc1nnc(CNC(=O)c2c(F)cccc2Cl)o1)Nc1ccc2c(c1)OCCO2, the Potency was inconclusive: 22.4 µM [inhibitor, partial curve, poor fit].
For CCn1c(SCCOc2ccc(OC)cc2)nnc1C(CO)NC(=O)c1ccc(OC)cc1 (stereo not given), the Potency was inconclusive: 25.1 µM [inhibitor, single point].
For Cc1ccc2c(c1)-c1c(cnn1CC(=O)Nc1ccccc1N1CCN(C)CC1)CO2, the Potency was active: 9.2 µM.
With COc1ccc(N(Cc2ccccc2)C(=O)c2ccccc2[N+](=O)[O-])cc1 the Potency was inconclusive: 12.6 µM [inhibitor, partial curve, poor fit].
In the case of CC1CCCC(NC(=O)COC(=O)c2sc3ccccc3c2Cl)C1C (stereo not given), the Potency is reported as inconclusive: 22.4 µM [activator, single point].
With Cc1cc(NC(=O)CCCn2ccc([N+](=O)[O-])n2)n(Cc2ccc(F)cc2)n1 the Potency was “inactive”.
With COc1ccc(N2CCCCn3c2nc2c3c(=O)[nH]c(=O)n2C)cc1 the Potency was inconclusive: 5.8 µM [inhibitor, partial curve, poor fit].
With COc1ccc(OC)c2sc(N(CCCN(C)C)C(=O)CCS(=O)(=O)c3ccccc3)nc12 the Potency was inconclusive: 25.1 µM [inhibitor, single point].
With COc1ccc(CCNC(=O)c2nn(C)cc2Cl)cc1 the Potency was “inactive”.
With CCCC[C@@]1(C2CCCC2)Cc2cc(OCC(=O)O)c(Cl)c(Cl)c2C1=O the Potency was inconclusive: 22.4 µM [inhibitor, single point].
With Clc1ccc(-c2cc(CN3CCCCC3)no2)cc1Cl the Potency was inconclusive: 1.58 µM [inhibitor, partial curve, poor fit].
With CCOc1ccc(NC(=S)N2CCC(C(O)(c3ccccc3)c3ccccc3)CC2)cc1 the Potency was inconclusive: 0.82 µM [inhibitor, full curve].
With COc1cccc(-c2ccc(-c3noc(-c4ccccc4Br)n3)c(OC)n2)c1 the Potency was “inactive”.
With COc1ccc(NC(C)C(=O)Nc2ccc(C#N)cc2)cc1Cl (stereo not given) the Potency was “inactive”.
In the case of C=CCn1c(O)c(/C=C2/C=c3ccccc3=N2)c(=O)[nH]c1=S, the Potency is reported as inconclusive: 11.2 µM [inhibitor, partial curve].
With CC(C)CC1=NN(C(=O)c2cccnc2)C(O)(C(F)(F)F)C1 (stereo not given) the Potency was inconclusive: 2.82 µM [activator, single point].
In the case of COc1ccc(CCNC(=O)COC(=O)c2ccc(Br)o2)cc1OC, the Potency is reported as inconclusive: 23.1 µM [activator, partial curve, poor fit].
In the case of O=C1C=C(Nc2ccc(O)cc2)C(=O)c2ccccc21, the Potency is reported as inconclusive: 8.2 µM [inhibitor, partial curve, poor fit].
With O=C1c2cccc3c(N4CCOCC4)c([N+](=O)[O-])cc(c23)C(=O)N1c1cccc2ccccc12 the Potency was inconclusive: 0.164 µM [activator, partial curve, poor fit].
